Our source for the binding values is article PMC10933402.

No constants are given. Whether binding was seen depends on the method and setting. For some assays here: Binding seen in cells or lysates may run through a third protein. Some entries that bind do so weakly or less than the wild type. For some assays here: Sequences can lack the tags named with a protein.

For experiment [1], the target named is T1, GST-MARS (UniProt P56192).
T1 sequence: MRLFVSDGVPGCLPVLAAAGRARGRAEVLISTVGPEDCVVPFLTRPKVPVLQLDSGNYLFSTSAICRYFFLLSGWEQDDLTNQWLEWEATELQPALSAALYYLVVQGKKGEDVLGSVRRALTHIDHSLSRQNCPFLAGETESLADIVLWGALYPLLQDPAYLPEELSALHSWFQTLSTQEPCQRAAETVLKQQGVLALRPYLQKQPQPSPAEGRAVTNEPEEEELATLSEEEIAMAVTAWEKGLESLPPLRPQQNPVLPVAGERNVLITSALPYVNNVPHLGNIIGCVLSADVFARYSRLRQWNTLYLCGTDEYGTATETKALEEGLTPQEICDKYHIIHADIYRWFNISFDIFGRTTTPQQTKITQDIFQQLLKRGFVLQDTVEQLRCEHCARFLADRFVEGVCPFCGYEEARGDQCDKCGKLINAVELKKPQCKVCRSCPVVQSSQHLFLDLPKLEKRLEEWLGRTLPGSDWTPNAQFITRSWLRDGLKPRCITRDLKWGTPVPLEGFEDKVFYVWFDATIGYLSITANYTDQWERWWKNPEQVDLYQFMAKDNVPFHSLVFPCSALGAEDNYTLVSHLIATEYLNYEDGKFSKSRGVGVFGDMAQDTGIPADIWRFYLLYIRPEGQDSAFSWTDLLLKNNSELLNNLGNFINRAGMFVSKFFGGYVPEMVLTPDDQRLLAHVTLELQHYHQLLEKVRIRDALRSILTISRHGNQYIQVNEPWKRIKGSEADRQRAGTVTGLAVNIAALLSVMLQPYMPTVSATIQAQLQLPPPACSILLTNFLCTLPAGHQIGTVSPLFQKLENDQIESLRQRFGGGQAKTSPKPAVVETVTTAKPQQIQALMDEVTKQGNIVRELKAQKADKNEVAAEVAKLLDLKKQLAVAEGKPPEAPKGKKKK
Description: pull-down; 10 pmol GST-MARS on glutathione beads, then mock or 100 pmol RNA with 5′-P or 5′-Pme ends, then 100 pmol EPRS in binding buffer 1 (50 mM Tris-HCl pH 8, 50 mM NaCl, 0.5% NP-40), 2 h at 4 °C; both purified.

Experiment [2] addresses T2, BCDIN3D-FLAG (human) (UniProt Q7Z5W3).
T2 sequence: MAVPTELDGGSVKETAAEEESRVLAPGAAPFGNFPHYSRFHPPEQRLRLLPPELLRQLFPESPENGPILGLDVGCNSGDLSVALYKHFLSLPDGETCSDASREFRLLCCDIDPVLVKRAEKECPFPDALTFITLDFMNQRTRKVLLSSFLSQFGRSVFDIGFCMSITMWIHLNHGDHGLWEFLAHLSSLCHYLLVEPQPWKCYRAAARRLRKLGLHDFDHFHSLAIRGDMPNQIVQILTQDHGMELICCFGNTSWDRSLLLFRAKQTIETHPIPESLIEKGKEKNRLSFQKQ
The experiment can be described thus: co-IP; as the FLAG co-IP of BCDIN3Df, but performed in the presence of RNase A (30 µg; 1.5 µL at 20 µg/µL).

Experiment [3] concerns the target T2, BCDIN3D-FLAG (human). The experiment can be described thus: co-IP; HeLa-S3-FlpIn control and BCDIN3Df lysates (mock treated), anti-FLAG M2 beads, 4 h at 4 °C, co-IP buffer (20 mM HEPES pH 7.5, 150 mM NaCl, 20% glycerol, 0.1% NP-40, 1 mM EDTA), elution with 3×FLAG peptide, western blots. For orientation: In western blotting, separated proteins are transferred to a membrane and probed.

Experiment [4] has as its target T3, EPRS (bifunctional glutamyl-prolyl-tRNA synthase), endogenous (human (endogenous in HeLa-S3-FlpIn)), P07814.
T3 chain: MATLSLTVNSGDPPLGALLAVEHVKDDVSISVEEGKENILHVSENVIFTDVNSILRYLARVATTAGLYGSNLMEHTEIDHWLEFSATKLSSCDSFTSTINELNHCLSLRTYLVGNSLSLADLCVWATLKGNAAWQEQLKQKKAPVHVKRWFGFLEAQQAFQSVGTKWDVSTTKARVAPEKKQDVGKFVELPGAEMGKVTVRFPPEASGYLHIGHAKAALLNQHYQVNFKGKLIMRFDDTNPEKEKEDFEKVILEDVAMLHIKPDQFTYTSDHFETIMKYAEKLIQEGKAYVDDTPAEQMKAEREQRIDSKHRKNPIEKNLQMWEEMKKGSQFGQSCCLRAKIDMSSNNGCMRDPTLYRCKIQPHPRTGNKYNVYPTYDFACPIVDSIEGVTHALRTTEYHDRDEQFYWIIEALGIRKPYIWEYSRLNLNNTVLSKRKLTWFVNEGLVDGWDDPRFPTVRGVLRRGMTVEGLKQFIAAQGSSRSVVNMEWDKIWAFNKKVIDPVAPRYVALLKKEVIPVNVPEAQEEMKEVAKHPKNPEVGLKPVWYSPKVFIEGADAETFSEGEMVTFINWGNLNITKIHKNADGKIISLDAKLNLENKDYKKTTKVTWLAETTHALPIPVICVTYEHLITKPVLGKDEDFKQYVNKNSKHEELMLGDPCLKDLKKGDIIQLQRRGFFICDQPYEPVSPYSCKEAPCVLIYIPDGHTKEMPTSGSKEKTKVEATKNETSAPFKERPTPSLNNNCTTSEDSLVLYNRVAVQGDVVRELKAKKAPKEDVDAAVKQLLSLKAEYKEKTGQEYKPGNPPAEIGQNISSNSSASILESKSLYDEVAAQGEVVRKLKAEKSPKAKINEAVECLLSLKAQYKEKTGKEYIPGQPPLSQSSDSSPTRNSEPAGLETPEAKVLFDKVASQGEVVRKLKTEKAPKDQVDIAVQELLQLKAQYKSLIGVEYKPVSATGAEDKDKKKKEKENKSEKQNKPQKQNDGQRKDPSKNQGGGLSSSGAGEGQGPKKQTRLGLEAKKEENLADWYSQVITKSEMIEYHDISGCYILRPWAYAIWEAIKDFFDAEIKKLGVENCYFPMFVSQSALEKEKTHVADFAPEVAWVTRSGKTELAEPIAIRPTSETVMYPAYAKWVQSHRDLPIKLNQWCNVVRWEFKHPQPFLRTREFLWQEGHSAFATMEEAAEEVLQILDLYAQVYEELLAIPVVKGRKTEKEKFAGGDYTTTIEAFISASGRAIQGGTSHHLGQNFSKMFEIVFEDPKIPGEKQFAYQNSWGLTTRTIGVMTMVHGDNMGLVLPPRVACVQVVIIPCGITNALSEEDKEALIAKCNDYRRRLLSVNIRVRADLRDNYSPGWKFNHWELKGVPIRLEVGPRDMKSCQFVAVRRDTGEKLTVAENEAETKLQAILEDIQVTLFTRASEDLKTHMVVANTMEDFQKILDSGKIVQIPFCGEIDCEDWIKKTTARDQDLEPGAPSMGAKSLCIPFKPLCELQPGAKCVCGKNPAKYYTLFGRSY
Description: co-IP; 5 µg anti-EPRS (or anti-GFP control) antibody, Dynabeads Protein G, lysates of HeLa-S3-FlpIn control and BCDIN3D-KO cells, quantitative LI-COR western blot for EPRS and MARS. To be noted: remark: other sources report otherwise.

In experiment [5] the target is GST-EPRS (UniProt P07814). The experiment can be described thus: pull-down; 10 pmol GST-EPRS or GST-MARS on glutathione beads, then mock or 100 pmol synthetic RNA-5′-P or -5′-Pme, then 100 pmol untagged BCDIN3D in binding buffer 2 (50 mM Tris-HCl pH 8, 50 mM NaCl, 0.5% NP-40, 5 mM DTT), 2 h at 4 °C; both purified.
Experiment [6] addresses T1, GST-MARS. The experiment is described as above.

Consider “EPRS-C-MYC/DDK (from UniProt P07814 1-1512)”, for which the binding result in experiment [1] is recorded as “binds weakly”.

As for “EPRS (bifunctional glutamyl-prolyl-tRNA synthase), endogenous (from UniProt P07814 1-1512)”, the binding result was “no binding (condition: lysate treated with 30 µg RNase A)” in experiment [2] and “binds” in experiment [3].

B1: MARS (methionyl tRNA synthetase), endogenous (protein, UniProt P56192 1-900)
chain: MRLFVSDGVPGCLPVLAAAGRARGRAEVLISTVGPEDCVVPFLTRPKVPVLQLDSGNYLFSTSAICRYFFLLSGWEQDDLTNQWLEWEATELQPALSAALYYLVVQGKKGEDVLGSVRRALTHIDHSLSRQNCPFLAGETESLADIVLWGALYPLLQDPAYLPEELSALHSWFQTLSTQEPCQRAAETVLKQQGVLALRPYLQKQPQPSPAEGRAVTNEPEEEELATLSEEEIAMAVTAWEKGLESLPPLRPQQNPVLPVAGERNVLITSALPYVNNVPHLGNIIGCVLSADVFARYSRLRQWNTLYLCGTDEYGTATETKALEEGLTPQEICDKYHIIHADIYRWFNISFDIFGRTTTPQQTKITQDIFQQLLKRGFVLQDTVEQLRCEHCARFLADRFVEGVCPFCGYEEARGDQCDKCGKLINAVELKKPQCKVCRSCPVVQSSQHLFLDLPKLEKRLEEWLGRTLPGSDWTPNAQFITRSWLRDGLKPRCITRDLKWGTPVPLEGFEDKVFYVWFDATIGYLSITANYTDQWERWWKNPEQVDLYQFMAKDNVPFHSLVFPCSALGAEDNYTLVSHLIATEYLNYEDGKFSKSRGVGVFGDMAQDTGIPADIWRFYLLYIRPEGQDSAFSWTDLLLKNNSELLNNLGNFINRAGMFVSKFFGGYVPEMVLTPDDQRLLAHVTLELQHYHQLLEKVRIRDALRSILTISRHGNQYIQVNEPWKRIKGSEADRQRAGTVTGLAVNIAALLSVMLQPYMPTVSATIQAQLQLPPPACSILLTNFLCTLPAGHQIGTVSPLFQKLENDQIESLRQRFGGGQAKTSPKPAVVETVTTAKPQQIQALMDEVTKQGNIVRELKAQKADKNEVAAEVAKLLDLKKQLAVAEGKPPEAPKGKKKK
B1: the binding result is recorded as “no binding (condition: lysate treated with 30 µg RNase A)” in experiment [2] and “binds” in experiment [3].

B2: MARS (methionyl tRNA synthetase), endogenous, P56192 1-900 (protein)
chain: MRLFVSDGVPGCLPVLAAAGRARGRAEVLISTVGPEDCVVPFLTRPKVPVLQLDSGNYLFSTSAICRYFFLLSGWEQDDLTNQWLEWEATELQPALSAALYYLVVQGKKGEDVLGSVRRALTHIDHSLSRQNCPFLAGETESLADIVLWGALYPLLQDPAYLPEELSALHSWFQTLSTQEPCQRAAETVLKQQGVLALRPYLQKQPQPSPAEGRAVTNEPEEEELATLSEEEIAMAVTAWEKGLESLPPLRPQQNPVLPVAGERNVLITSALPYVNNVPHLGNIIGCVLSADVFARYSRLRQWNTLYLCGTDEYGTATETKALEEGLTPQEICDKYHIIHADIYRWFNISFDIFGRTTTPQQTKITQDIFQQLLKRGFVLQDTVEQLRCEHCARFLADRFVEGVCPFCGYEEARGDQCDKCGKLINAVELKKPQCKVCRSCPVVQSSQHLFLDLPKLEKRLEEWLGRTLPGSDWTPNAQFITRSWLRDGLKPRCITRDLKWGTPVPLEGFEDKVFYVWFDATIGYLSITANYTDQWERWWKNPEQVDLYQFMAKDNVPFHSLVFPCSALGAEDNYTLVSHLIATEYLNYEDGKFSKSRGVGVFGDMAQDTGIPADIWRFYLLYIRPEGQDSAFSWTDLLLKNNSELLNNLGNFINRAGMFVSKFFGGYVPEMVLTPDDQRLLAHVTLELQHYHQLLEKVRIRDALRSILTISRHGNQYIQVNEPWKRIKGSEADRQRAGTVTGLAVNIAALLSVMLQPYMPTVSATIQAQLQLPPPACSILLTNFLCTLPAGHQIGTVSPLFQKLENDQIESLRQRFGGGQAKTSPKPAVVETVTTAKPQQIQALMDEVTKQGNIVRELKAQKADKNEVAAEVAKLLDLKKQLAVAEGKPPEAPKGKKKK
Turning to B2, the binding result in experiment [4] was “binds”.

B3: untagged recombinant BCDIN3D (enzyme, UniProt Q7Z5W3 1-292)
chain: MAVPTELDGGSVKETAAEEESRVLAPGAAPFGNFPHYSRFHPPEQRLRLLPPELLRQLFPESPENGPILGLDVGCNSGDLSVALYKHFLSLPDGETCSDASREFRLLCCDIDPVLVKRAEKECPFPDALTFITLDFMNQRTRKVLLSSFLSQFGRSVFDIGFCMSITMWIHLNHGDHGLWEFLAHLSSLCHYLLVEPQPWKCYRAAARRLRKLGLHDFDHFHSLAIRGDMPNQIVQILTQDHGMELICCFGNTSWDRSLLLFRAKQTIETHPIPESLIEKGKEKNRLSFQKQ
Regarding B3, the binding result in experiment [5] and in experiment [6] was “binds weakly” in each case.
